Data published in PubChem BioAssay AID226 (DTP/NCI, 2004).
The list shows only some results of the screen, not a fair sample: it is rich in T/C values a quarter to a half above the control, in often repeated tests (any T/C) and in doses without a T/C. Other doses and runs of a compound stand elsewhere. T/C gives the treated animals as a percentage of the vehicle group. Some entries give survivors of the animals treated and no T/C: the source files T/C as zero there, which appears to mark a toxic dose or a test without result, not a measured value. Some survivor counts are full or nearly so, which does not show that the dose was tolerated: survival well below the control is almost never listed, so the zero probably covers shortened survival too. Counts of survivors are from the toxicity check (mostly the fifth day) where no day follows; animals may have died later. Schedule codes are those of the source, read here as Q, the interval in days (D) or hours (H), X, the number of doses. Some entries were tested several times; the values are given in rising order. Where survival is the endpoint, this PubChem deposit counts one and a half times the control or more as active, and values a quarter to a half above the control carry no call in these data; other NCI protocols may use other cut-offs. Some T/C values are followed by the survivors on the day toxicity was checked, most often the fifth; where none is given, no animal had died by that day. Brackets with × give the number of equal values in this list. Some schedule codes hold Z or #, which are not explained here.

Test system: B6C3F1 mice, intracerebral ependymoblastoma, median survival T/C
Assay: NCI In Vivo Anticancer Drug Screen. Data for tumor model Ependymoblastoma (intracerebral) in B6C3F1 mice
Details: T/C endpoint: median survival time, higher T/C = longer survival
Description: The antitumor activity of compounds was measured in mice bearing transplantable tumors. Survival or tumor size were measured and the results are expressed as the measurement made in the treated group (T) divided by the measurement made in the vehicle treated control group (C). The tumor model used in this assay is Ependymoblastoma (intracerebral) in B6C3F1 mice

[1] = dose: 24.0 mg/kg/injection, schedule: Q01DX005 (ip), vehicle: saline with Tween-80
[2] = dose: 128.0 mg/kg/injection, schedule: Q01DX005 (ip), vehicle: saline with Tween-80
[3] = dose: 32.0 mg/kg/injection, schedule: Q01DX001 (ip), vehicle: saline
[4] = dose: 64.0 mg/kg/injection, schedule: Q01DX001 (ip), vehicle: saline
[5] = dose: 256.0 mg/kg/injection, schedule: Q01DX005 (ip), vehicle: saline with Tween-80

CC(C)(C)N1CC1CNC(=O)C(=O)NCC1CN1C(C)(C)C (stereo unspecified)
T/C (dose: 12.5 mg/kg/injection, schedule: Q01DX005 (ip), vehicle: saline with Tween-80): 127 % of control
T/C [1]: 140 % of control
survivor count [1]: 10 of 10
survivor count (dose: 25.0 mg/kg/injection, schedule: Q01DX005 (ip), vehicle: saline with Tween-80): 9 of 10
survivor count (dose: 50.0 mg/kg/injection, schedule: Q01DX005 (ip), vehicle: saline with Tween-80): 6 of 10
survivor count (dose: 100.0 mg/kg/injection, schedule: Q01DX005 (ip), vehicle: saline with Tween-80): 0 of 10

COc1cc([C@@H]2c3cc4c(cc3[C@@H](OC3OC5CO[C@@H](c6cccs6)OC5C(O)C3O)[C@H]3COC(=O)[C@H]23)OCO4)cc(OC)c1O (stereo partly specified)
T/C (dose: 1.0 mg/kg/injection, schedule: Q01DX005 (ip), vehicle: saline): 135 % of control
T/C (dose: 4.0 mg/kg/injection, schedule: Q01DX001 (ip), vehicle: saline): 126 % of control
survivor count (dose: 4.0 mg/kg/injection, schedule: Q01DX005 (ip), vehicle: saline): 10 of 10
survivor count (dose: 8.0 mg/kg/injection, schedule: Q01DX005 (ip), vehicle: saline): 9 of 10
T/C (dose: 16.0 mg/kg/injection, schedule: Q01DX001 (oral), vehicle: saline): 127 % of control
survivor count (dose: 16.0 mg/kg/injection, schedule: Q01DX005 (oral), vehicle: saline): 10 of 10
survivor count (dose: 32.0 mg/kg/injection, schedule: Q01DX005 (oral), vehicle: saline): 10 of 10
survivor count (dose: 128.0 mg/kg/injection, schedule: Q01DX001 (oral), vehicle: saline): 0 of 10

CN(C)N=Nc1ccc(C(=O)O)cc1
T/C (dose: 64.0 mg/kg/injection, schedule: Q01DX005 (ip), vehicle: saline with Tween-80): 139 % of control
T/C [2]: 149 % of control
T/C (dose: 200.0 mg/kg/injection, schedule: Q01DX005 (ip), vehicle: saline with Tween-80): 133 % of control

COC1OC(CO)C(O)C(NC(=O)N(C)N=O)C1O (stereo unspecified)
T/C (dose: 2.0 mg/kg/injection, schedule: Q## X006 (ip), vehicle: saline + alcohol): 125 % of control
T/C (dose: 8.0 mg/kg/injection, schedule: Q01DX005 (ip), vehicle: saline + alcohol): 127 % of control
T/C (dose: 16.0 mg/kg/injection, schedule: Q## X004 (ip), vehicle: saline + alcohol): 127 % of control
T/C (dose: 16.0 mg/kg/injection, schedule: Q## X006 (ip), vehicle: saline + alcohol): 130 % of control
T/C (dose: 64.0 mg/kg/injection, schedule: Q01DX005 (oral), vehicle: saline + alcohol): 136 % of control
T/C (dose: 256.0 mg/kg/injection, schedule: Q01DX001 (oral), vehicle: saline + alcohol): 129 % of control

C[n+]1c2ccccc2nc2c(N)cc(N)cc21
T/C (dose: 8.0 mg/kg/injection, schedule: Q01DX001 (ip), vehicle: saline): 97 [survivors not given], 98 [survivors not given], 99 [survivors not given], 103 % of control
T/C (dose: 16.0 mg/kg/injection, schedule: Q01DX001 (ip), vehicle: saline): 94 [survivors not given], 101, 106 [survivors not given], 107 % of control [survivors not given]
T/C [3]: 102 [survivors not given], 103 [survivors not given], 104, 104 % of control [survivors not given]
T/C [4]: 97 [survivors not given], 98 [survivors not given], 103, 105 % of control [survivors not given]

COc1ccc(CC2C(=O)NC(C)C(=O)N(C)C3C(=O)N(C)C(Cc4ccc(O)c(c4)Oc4ccc(cc4)C3O)C(=O)NC(C)C(=O)NC(C)C(=O)N2C)cc1 (stereo unspecified)
survivor count (dose: 4.0 mg/kg/injection, schedule: Q01DX005 (ip), vehicle: Klucel (hydroxypropylcellulose) (HPC)): 0 of 10

CN(Cc1cnc2nc(N)nc(N)c2n1)c1c(Cl)cc(C(=O)NC(CCC(=O)O)C(=O)O)cc1Cl (stereo unspecified)
T/C [3]: 95, 99 [survivors not given] (2×), 112 % of control [survivors not given]
T/C [4]: 97 [survivors not given], 100 [survivors not given], 103, 109 % of control [survivors not given]
T/C (dose: 128.0 mg/kg/injection, schedule: Q01DX001 (ip), vehicle: saline): 95, 98 [survivors not given], 107 [survivors not given], 109 % of control [survivors not given]
T/C (dose: 256.0 mg/kg/injection, schedule: Q01DX001 (ip), vehicle: saline): 98, 99 [survivors not given], 107 [survivors not given], 109 % of control [survivors not given]
survivor count [5]: 9 of 10 and 10 of 10
survivor count (dose: 512.0 mg/kg/injection, schedule: Q01DX005 (ip), vehicle: Klucel (hydroxypropylcellulose) (HPC)): 8 of 10

CC1(C)OC2C(COC(=O)c3ccc([N+](=O)[O-])cc3)OC(NC(=O)N(CCCl)N=O)C2O1 (stereo unspecified)
T/C (dose: 2.5 mg/kg/injection, schedule: Q01DX009 (ip), vehicle: saline): 128 % of control
T/C (dose: 3.12 mg/kg/injection, schedule: Q01DX009 (ip), vehicle: saline with Tween-80): 129 % of control
T/C (dose: 6.25 mg/kg/injection, schedule: Q01DX009 (ip), vehicle: saline with Tween-80): 141 % of control
survivor count (dose: 50.0 mg/kg/injection, schedule: Q01DX009 (ip), vehicle: saline with Tween-80): 8 of 9
survivor count (dose: 100.0 mg/kg/injection, schedule: Q01DX009 (ip), vehicle: saline with Tween-80): 10 of 10

Nc1nncs1
T/C (dose: 128.0 mg/kg/injection, schedule: Q01DX001 (ip), vehicle: saline with Tween-80): 101 [survivors not given], 106 [survivors not given], 108, 110 % of control [survivors not given]
T/C [2]: 125 % of control
T/C (dose: 256.0 mg/kg/injection, schedule: Q01DX001 (ip), vehicle: saline with Tween-80): 106 [survivors not given], 111 [survivors not given], 113, 115 % of control [survivors not given]
survivor count [5]: 10 of 10
T/C (dose: 512.0 mg/kg/injection, schedule: Q01DX001 (ip), vehicle: saline with Tween-80): 105 [survivors not given], 108 [survivors not given], 112, 117 % of control [survivors not given]
survivor count (dose: 512.0 mg/kg/injection, schedule: Q01DX005 (ip), vehicle: saline with Tween-80): 8 of 10
T/C (dose: 1024.0 mg/kg/injection, schedule: Q01DX001 (ip), vehicle: saline with Tween-80): 101 [survivors not given], 108, 110 [survivors not given], 123 % of control [survivors not given]

CC([NH-])C[NH-].[Cl][Pt+2][Cl] (stereo unspecified)
survivor count (dose: 4.0 mg/kg/injection, schedule: Q01DX005 (ip), vehicle: dextrose): 10 of 10
survivor count (dose: 8.0 mg/kg/injection, schedule: Q01DX005 (ip), vehicle: dextrose): 10 of 10
survivor count (dose: 16.0 mg/kg/injection, schedule: Q01DX005 (ip), vehicle: dextrose): 9 of 10
survivor count (dose: 32.0 mg/kg/injection, schedule: Q01DX005 (ip), vehicle: dextrose): 1 of 10

CC(=O)OCC1OC(n2ccc(N)nc2=O)C(OC(C)=O)C1OC(C)=O (stereo unspecified)
survivor count (dose: 400.0 mg/kg/injection, schedule: Q01DX005 (ip), vehicle: Klucel (hydroxypropylcellulose) (HPC)): 10 of 10
survivor count (dose: 800.0 mg/kg/injection, schedule: Q01DX005 (ip), vehicle: Klucel (hydroxypropylcellulose) (HPC)): 10 of 10

CN(C)CC(=O)c1ccc(O)c(O)c1
T/C (dose: 100.0 mg/kg/injection, schedule: Q01DX001 (ip), vehicle: saline): 100, 103 [survivors not given], 104 [survivors not given], 112 % of control [survivors not given]
T/C (dose: 200.0 mg/kg/injection, schedule: Q01DX001 (ip), vehicle: saline): 94 [survivors not given], 100 [survivors not given], 102, 106 % of control [survivors not given]
T/C (dose: 400.0 mg/kg/injection, schedule: Q01DX001 (ip), vehicle: saline): 88, 88 [survivors not given], 105 [survivors not given], 106 % of control [survivors not given]
T/C (dose: 800.0 mg/kg/injection, schedule: Q01DX001 (ip), vehicle: saline): 98, 98 [survivors not given], 102 [survivors not given], 109 % of control [survivors not given]
